Screen size: about 340,000 compounds; about 6,200 (1.8%) were called active. This list was built around the results that the source calls inconclusive (neither active nor inactive); the mix of calls is not that of the screen. Calls follow the shape of the dose curve; as a rule, active = well fitted activation curve with a large enough effect; inconclusive = small, poorly fitted or top-dose-only effect; inactive = no such curve, though single readings can be large or run the other way. Potencies of inconclusive entries are doubtful fits and often do not repeat.
experiment: A quantitative high throughput screen for small molecules that induce DNA re-replication in SW480 colon adenocarcinoma cells.; also: nearly all actives have a fitted effect of over 55% in size; as to re-replication activation: % of control where 0% means no effect; details: Hoechst DNA content imaging, 48 h; re-replication activation: at 46.1 µM (top of the series)
Outline: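 250 cells/well; 23 nL cpd via pin tool; 48 hr, 37 C, 5% CO2; Hoechst 40 min; imager read of total nuclear intensity, ex 405/em 500-530 nm.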
Potency is read from the fitted curve at half-maximal effect.

SMILES | re-replication activation | Potency
Cc1ccc(-c2csc3nnc(SCC(=O)N4CCN(Cc5ccccc5)CC4)n23)cc1 | inactive: 8.12% | 
COc1ccc(C2=C(CN(C)C)C(c3ccccc3)c3ccccc3O2)cc1 (centres undefined) |  | inconclusive: 23.1 µM [activator, single point]
COc1ccc(/C=N/Nc2ncc(-c3ccccc3)cn2)c(OC)c1 |  | inconclusive: 23.1 µM [activator, single point]
O=C1/C(=C/c2ccccc2)CN(C(=O)CCN2CCOCC2)C/C1=C\c1ccccc1 |  | inconclusive: 0.58 µM [activator, full curve, poor fit]
Fc1ccc(N/N=C/C=C/c2ccccc2)c(F)c1 | inactive: -6.05% | 
COc1ccc(-n2nc3c(c2NC(=O)COc2ccccc2)CS(=O)C3)cc1 (centres undefined) |  | inconclusive: 16.4 µM [activator, single point]
COc1ccc(CCNC(=O)COc2ccc(N(C)S(=O)(=O)c3ccc(C)cc3)cc2)cc1 |  | inconclusive: 29.1 µM [activator, partial curve, poor fit]
CCOc1ccccc1C1CC(=O)Nc2cc(C)c(C)cc21 (centres undefined) |  | active: 18.4 µM
COC(=O)c1cnc(Oc2c(Cl)cc(N)cc2Cl)cc1C(F)(F)F |  | inconclusive: 2.91 µM [activator, single point]
O=C(Nc1ccc(CN2CCOCC2)cc1)c1cccc(-c2cc3ccccc3oc2=O)c1 |  | inconclusive: 32.6 µM [activator, single point]
O=C1[C@@H](Oc2ccccc2)[C@@H](c2cnc3ccccc3c2)N1c1ccccc1 |  | inconclusive: 20.6 µM [activator, partial curve, poor fit]
COc1cc2c3nnc(-c4ccc(F)cc4)c-3cn(Cc3cccc(C)c3)c2cc1OC |  | active: 20.6 µM
Cc1cc2cc(CCNC(=O)c3ccc(S(=O)(=O)N4CCCC4)cc3)c(=O)[nH]c2cc1C |  | inconclusive: 25.9 µM [activator, single point]
CNC(=S)NNC(=O)c1oc2nc(-c3ccccc3)cc(-c3ccco3)c2c1N |  | active: 14.6 µM
O=C(NC(=S)Nc1ccc2oc(-c3ccncc3)nc2c1)c1ccccc1F |  | inconclusive: 1.3 µM [activator, full curve]
CC(=O)c1cccc(NC(=O)CN2C(=O)c3cccnc3Oc3ccc(Cl)cc32)c1 |  | inconclusive: 29.1 µM [activator, single point]
COc1cccc(Nc2nc(-c3ccc4c(c3)OCCO4)cs2)c1 |  | inconclusive: 29.1 µM [activator, single point]
COc1cc(C(=O)NCCNc2nc3ccc(C)cc3cc2C#N)cc(OC)c1OC |  | inconclusive: 18.4 µM [activator, single point]
Cc1nnc2c3ccccc3c(-c3cccs3)nn12 | inactive: 1.39% | 
CCN1C(=O)[C@H]2[C@H]3CN=C(SCC(=O)c4ccccc4)N3[C@@](CC)(C(=O)OC)[C@H]2C1=O | inactive: -5.25% [at 9.22 µM] | 
C/C(=N\Nc1ccc([N+](=O)[O-])cc1)c1cc2ccccc2o1 | inactive: 23.9% | 
COc1ccc(C(=O)Nc2ccccc2-c2nnn(CC(=O)NCc3ccco3)n2)cc1 |  | inconclusive: 29.1 µM [activator, single point]
O=C(COC(=O)C1CC(O)CN1S(=O)(=O)c1ccc(Cl)cc1)c1ccccc1 (centres undefined) | inactive: -5.24% | 

SMILES | re-replication activation | Potency
COc1ccc(Nc2nc3c(C)cccc3cc2C#N)c(OC)c1 | inactive: 18.6% | 
O=C(COC(=O)C1(c2ccccc2F)CCCC1)N1CCc2ccccc21 | inactive: 2.34% | 
CCCCOC(=O)/C(=C\c1ccc([N+](=O)[O-])o1)NC(=O)c1ccccc1 | inactive: -2.37% | 
CCC1(CC)NC(=O)N(CC(=O)OCC(=O)Nc2cc(OC)ccc2OC)C1=O | inactive: -0.0384% | 
O=C(NC(=S)Nc1ccccc1C(F)(F)F)c1ccccc1F | inactive: -3.16% | 
CCCCCCc1cc2cc(C(=O)OCC)c(=O)oc2cc1O |  | active: 1.3 µM
Cc1cc(O)c(/C=N/OCc2ccc(Cl)cc2Cl)c(=O)o1 |  | inconclusive: 6.51 µM [activator, single point]
Cc1ccccc1OCC(=O)NNC(=O)C1CC(=O)N(c2ccc3c(c2)OCCO3)C1 (centres undefined) |  | inconclusive: 18.4 µM [activator, single point]
Cc1c(Cl)cccc1NC(=O)CSC(C)c1nc2ccccc2c(=O)[nH]1 (centres undefined) | inactive: -3.33% | 
NC(=O)NC(Cc1ccccc1)C(=O)NCCCSc1ccccc1 (centres undefined) | inactive: -2.45% | 
O=C(N/N=C/c1c[nH]c2ccccc12)c1cc(-c2ccc(-c3ccccc3)cc2)n[nH]1 |  | inconclusive: 16.4 µM [activator, single point]
CCOC(=O)c1cc(-c2ccc(OC)cc2)n(CCC(=O)NC2CCN(Cc3ccccc3)CC2)c1C |  | inconclusive: 29.1 µM [activator, single point]
CCOC(=O)N1CCN(C(=O)c2cccn3c(=O)c4c5c(sc4nc23)CCCC5)CC1 |  | inconclusive: 3.66 µM [activator, full curve, poor fit]
CCCc1nc(Nc2nc3ccccc3o2)nc(C)c1C(=O)OCC | inactive: 0.872% | 
CCCn1c(NC(=O)CCNC(=O)c2ccccc2Cl)nc2ccccc21 | inactive: -2.91% | 
C=CCN(CC=C)S(=O)(=O)c1ccc(C(=O)Nc2nnc(COC)o2)cc1 |  | inconclusive: 4.61 µM [activator, full curve, poor fit]
COc1ccc(NS(=O)(=O)c2cc3c(cc2C)N(C(C)=O)CCO3)c(OC)c1 | inactive: -12.4% | 
N#CC1=C(N)Oc2cc(O)c(Cl)cc2C1c1cccnc1 (centres undefined) |  | inconclusive: 4.61 µM [activator, partial curve, poor fit]
COc1ccc(-c2nc(NC(=O)C3CCN(c4nc5ccccc5o4)CC3)sc2C)cc1 |  | inconclusive: 20.6 µM [activator, partial curve, poor fit]
CC(NC(=O)CN1CCN(c2ccccc2F)CC1)c1ccccc1 (centres undefined) | inactive: 0.596% | 
Cc1ccc(SCc2[nH]nc3c2C2(C(=O)N(C)c4ccccc42)C(C#N)=C(N)O3)cc1 (centres undefined) |  | inconclusive: 29.1 µM [activator, single point]
O=C(Cc1cccc(NC(=O)C2CCCN(C(=O)C3CCCCC3)C2)c1)Nc1ccc(C(=O)N2CCOCC2)cc1 (centres undefined) |  | inconclusive: 2.06 µM [activator, partial curve, poor fit]
Cc1ccc(NC(=O)CSCC(=O)NC2(C)CCS(=O)(=O)C2)cc1 (centres undefined) | inactive: -24.4% | 

Taken from the results shown (3 entries):
SMILES | re-replication activation | Potency
CCCCCCc1cc2cc(C(=O)OCC)c(=O)oc2cc1O |  | active: 1.3 µM
Cc1cc(O)c(/C=N/OCc2ccc(Cl)cc2Cl)c(=O)o1 |  | inconclusive: 6.51 µM [activator, single point]
Cc1ccccc1OCC(=O)NNC(=O)C1CC(=O)N(c2ccc3c(c2)OCCO3)C1 (centres undefined) |  | inconclusive: 18.4 µM [activator, single point]

Continuation.

SMILES | re-replication activation | Potency
Clc1nnc(N2CCCCC2)c2ccccc12 |  | inconclusive: 14.6 µM [activator, partial curve, poor fit]
O=C(C1CC1)N1c2ccccc2Sc2ccccc21 |  | inconclusive: 29.1 µM [activator, single point]
COc1ccc(/C=C2\CCCC3C2=NN(C(=O)COC(=O)CNC(=O)c2ccccc2)C3c2ccc(OC)cc2)cc1 (centres undefined) |  | inconclusive: 20.6 µM [activator, partial curve]
C/C(=N/NC(=O)c1nnn(-c2nonc2N)c1-c1ccccc1)c1ccc2c(c1)OCO2 | inactive: -16.4% | 
CC(OC(=O)Cc1c[nH]c2ccccc12)C(=O)NC1(C#N)CCCCC1 (centres undefined) |  | inconclusive: 1.84 µM [activator, partial curve, poor fit]
CCCCCCCCNC(=O)c1cnccn1 |  | inconclusive: 6.51 µM [activator, single point]
O=C(O)C1Cc2[nH]cnc2C(c2ccccc2O)N1 (centres undefined) | inactive: -9.78% | 
Cc1ccc(Cn2ncc(Cl)c(Cl)c2=O)cc1 |  | inconclusive: 8.2 µM [activator, partial curve]
CCOc1cccc(C(=O)Nc2ccc3oc(Cc4ccc(Cl)cc4)nc3c2)c1 |  | inconclusive: 32.6 µM [activator, partial curve, poor fit]
COc1ccc(N(C(=O)c2snc(C(N)=O)c2N)C(C(=O)NCc2ccc(F)cc2)c2ccc(O)cc2)cc1 (centres undefined) |  | inconclusive: 20.6 µM [activator, single point]
O=C(CCNC(=O)c1ccccc1Cl)NN=Cc1ccccc1[N+](=O)[O-] | inactive: -2.33% | 
CCN(C[C@H]1N[C@@](C)(C(=O)OC)[C@H]2C(=O)N(C)C(=O)[C@@H]12)S(=O)(=O)c1ccc(F)cc1 |  | inconclusive: 0.411 µM [activator, full curve, poor fit]
N=c1c(C(=O)NCCN2CCOCC2)cc2c(=O)n3ccccc3nc2n1CCCN1CCOCC1 |  | active: 0.651 µM
CC(CN1CCCCC1)OC(=O)c1ccc(Cl)cc1 (centres undefined) | inactive: -3.21% | 
Cn1cnnc1Sc1ccc(/C=C/C(=O)c2ccc(O)cc2)cc1[N+](=O)[O-] | inactive: -17.5% | 
O=S1(=O)c2ccc(Br)cc2N2CCC[C@@H]2CN1Cc1ccc(Cl)cc1 |  | inconclusive: 32.6 µM [activator, partial curve, poor fit]
Cc1cccc(C)c1NC(=O)c1ccc(-c2ccc(Cl)cc2Cl)o1 |  | inconclusive: 18.4 µM [activator, single point]
CCOC(=O)c1c(NC(=O)c2c(-c3ccccc3)noc2C)sc(C)c1-c1ccccc1 |  | inconclusive: 18.4 µM [activator, single point]
CCN(CC)C1CC(=O)N(c2cccc(Cl)c2)C1=O (centres undefined) |  | inconclusive: 23.1 µM [activator, single point]
Cc1cccc(NC(=O)CSc2nccn2Cc2ccco2)c1C | inactive: -3.18% | 
C=CCNC(=O)CSc1nnc(-c2cccs2)o1 |  | inconclusive: 20.6 µM [activator, single point]
COc1ccc(-n2c(NN)nc3sc4c(c3c2=O)CCCC4)cc1 |  | inconclusive: 29.1 µM [activator, single point]
N#Cc1ccc(-c2cccnc2)nc1SCC(=O)c1ccccc1 |  | inconclusive: 3.66 µM [activator, partial curve, poor fit]

A different layout for two compounds above.
SMILES	re-replication activation	Potency
O=C(NC(=S)Nc1ccc2oc(-c3ccncc3)nc2c1)c1ccccc1F		inconclusive: 1.3 µM [activator, full curve]
CC(=O)c1cccc(NC(=O)CN2C(=O)c3cccnc3Oc3ccc(Cl)cc32)c1		inconclusive: 29.1 µM [activator, single point]
